# From PubChem BioAssay AID1458 (National Center for Advancing Translational Sciences (NCATS), 2008)
# The whole screen tested about 210,000 compounds, of which about 5,900 (2.8%) were called active. Another 5% or so got no clear call; they are omitted. Calls come from the whole dose curve; as a rule, active = well fitted activation curve with a large enough effect; inconclusive = small, poorly fitted or top-dose-only effect; inactive = no such curve, though single readings can be large or run the other way. Only a part is listed here, and it is no random draw. Where no call is shown, the source filed none.
# Assay: qHTS Assay for Enhancers of SMN2 Splice Variant Expression; note: nearly all actives have a fitted effect of over 55% in size; for activity change, positive = activation: % of control where 0% means no effect
# Conditions: HEK293 SMN2-luciferase splicing reporter, luminescence, 30-36 h; activity change, positive = activation: at 46.1 µM (top of the series) unless noted
# Summary of the method: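 HEK293 cells carry an SMN2 minigene-luciferase reporter in which exon 7 inclusion puts luciferase in frame. Cells were seeded at 2000 cells/well, attached for 10-12 hours, then exposed to compounds for 30-36 hours at 37C before ONE-Glo luminescence.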
# Potency is the fitted concentration of half-maximal effect.
Compound,Potency,"activity change, positive = activation"
COc1ccc(NC(=O)NCCC2=CCCCC2)cc1,active: 12.6 µM,
Cc1onc(-c2ccccc2)c1C(=O)c1c[nH]c(C(=O)NCc2ccccn2)c1,,inactive: -54.4%
CC(C)(C)c1ccc(OCc2ccc(C(=O)N/N=C3\CC4CC=CC34)cc2)cc1 (centres undefined),,-69.6%
CC(C)(C)C1CCc2onc(C(=O)Nc3cccc(O)c3)c2C1 (centres undefined),,-34%
Cc1ccc(C(=O)n2c3ccccc3c3ccccc32)cc1,,-14.8%
Cc1ccc(C(=O)c2sc3nc4c(cc3c2N)CCC4)cc1,active: 7.94 µM,
CCOc1ccc(C(=O)N/N=C/c2cc([N+](=O)[O-])cs2)cc1,,-20.2%
O=C(Cn1c(C(F)(F)F)nc2ccccc21)Nc1ccccc1C(=O)O,,166%
Cc1cccc(C)c1NC(=O)N1CCN(c2nc3ccccc3s2)CC1,,-80.3%
Cn1c(=NC(=O)c2ccccc2[N+](=O)[O-])sc2cc(S(C)(=O)=O)ccc21,active: 2.24 µM,
CC(C)c1ccc(/C=N/NC(=O)c2ccccc2Cl)cc1,,-45.5%
CC1=NN(C(=O)c2cccnc2)C(O)(C(F)(F)F)C1 (centres undefined),,-44.3%
O=C1C2=C(S[C@@H]3O[C@H](CO)[C@@H](O)[C@H](O)[C@H]3O2)C(=O)c2ccccc21,,inactive: -28%
O=C(Nc1ccc2c(c1)OCCO2)c1ccccn1,active: 1.26 µM,
COc1ccc(CN(C(=O)c2ccc(OCC(C)C)cc2)C2CCS(=O)(=O)C2)cc1 (centres undefined),,inactive: -35.3%
O=S(=O)(c1ccccc1Cl)N1CCCC1c1nc(-c2ccccc2Cl)no1 (centres undefined),,-45.7%
CC(C)c1ccc(N=C2NN=C(c3cccs3)CS2)cc1,active: 12.6 µM,
O=C(NCc1ccco1)c1cc2n(n1)C(C(F)(F)F)CC(c1ccc(Br)cc1)N2 (centres undefined),,-21.3%
CC(C)=C1SC(N2CCN(c3ccc(Cl)cc3)CC2)=NC1=O,,-55.3%
CC(Cc1ccccc1)NC(=O)c1ccc([N+](=O)[O-])cc1 (centres undefined),active: 14.1 µM,
COc1ccc(OCC(=O)c2c(O)c3ccccc3oc2=O)cc1,,47.2%
COc1cccc(CNc2cnc3ccccc3c2)c1O,active: 3.55 µM,
CC1(C)OC(=O)N(c2ccccc2)C12C=Cc1c(ccc3ccccc13)O2 (centres undefined),,inactive: -30.5%
C=CCSc1nc2ccccc2n1C(=O)/C=C/c1cc(OC)c(OC)c(OC)c1,,-81.7%
Cc1c(C#N)c(NC(=O)CCl)n(Cc2cccs2)c1C,,inactive: -103%
CC(C)(C)C(=O)Nc1ccc(C(=O)OC2CCCCC2)cc1,active: 35.5 µM,
C=CCNC(=S)N/N=C/c1ccc(-c2cc(Cl)ccc2Cl)o1,,35.1%
CCc1ccccc1NC(=O)CN(C)C(=O)Cn1ncc(Cl)c(Cl)c1=O,,-105%
Clc1ccccc1Cn1c(/C=C/c2ccco2)nc2ccccc21,,inactive: -0.206%

# Looked up one by one from the entries so far (2):
Compound,Potency,"activity change, positive = activation"
CCOc1ccc(C(=O)N/N=C/c2cc([N+](=O)[O-])cs2)cc1,,-20.2%
CC(C)(C)C(=O)Nc1ccc(C(=O)OC2CCCCC2)cc1,active: 35.5 µM,
